About 170 (0.05%) of roughly 340,000 compounds were called active. This list was built around the results that the source calls inconclusive (neither active nor inactive); the mix of calls is not that of the screen. Calls come from the whole dose curve; as a rule, active = well fitted inhibition curve with a large enough effect in the signal ratio, with a control signal flat (not every such curve was filed as active); inconclusive = small, poorly fitted or top-dose-only effect, or effect the other way, or a change in a side signal; inactive = flat fitted curve, though single readings scatter; the % refers to the signal ratio. A potency beside an inconclusive call is a rough fit, not a confirmed value.
experiment: qHTS Assay to Find Inhibitors of Chronic Active B-Cell Receptor Signaling; conditions: ABC-DLBCL IkBa-CBG/CBR reporter, luminescence ratio (green luciferase fused to IkBa over red control in TMD8 lymphoma cells), 4 h; activity change, negative = inhibition: at 46.1 µM (top of the series) unless noted;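 for activity change, negative = inhibition: plate controls were basal doxycycline-induced cells for no effect and cells given 10 µM MG132 for full effect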
Method in brief: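 Doxycycline induced both beetle luciferases in TMD8 lymphoma cells; IKK-driven degradation limits the IkappaBalpha-fused green signal, while red luminescence normalises for cell number and nonspecific effects. Compounds tested up to 46 uM, 4 hrs.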
Potency is the fitted concentration of half-maximal effect.

| SMILES | activity change, negative = inhibition | Potency |
| --- | --- | --- |
| COC(=O)c1ccc(NC(=O)CCC(=O)c2ccc(F)cc2)cc1 | inconclusive: 2.38% |  |
| CCCCNC(=O)N(O)C1N(/N=C/c2cccnc2)C(=S)SC1(C)C (centres undefined) | inconclusive: 6.94% |  |
| Cn1c(/C=C/c2cccc([N+](=O)[O-])c2)c([N+](=O)[O-])c(=O)n(C)c1=O |  | inconclusive: 25.1 µM [falling, single point] |
| Cc1ccc(C(C(=O)NCC2CCCO2)N(C(=O)c2snc(C(N)=O)c2N)c2ccc(C(C)C)cc2)o1 (centres undefined) |  | inconclusive: 22.4 µM [falling, partial curve, poor fit] |
| O=C(NCCCN1CCOCC1)c1cccs1 | inconclusive: 2.77% |  |
| COc1ccc(Cl)cc1S(=O)(=O)n1nnc2ccccc21 | inconclusive: 3.73% |  |
| Cc1cccc2sc(NC(=O)CN3C(=O)NC4(CCCC4)C3=O)nc12 | inconclusive: 1.7% |  |
| CCc1ccc(Nc2n[n+](-c3ccccc3)c(-c3ccc(SC)cc3)s2)cc1 |  | inconclusive: 12.6 µM [falling, partial curve, poor fit] |
| CCOC(=O)C1=CNS(=O)(=O)NC1c1ccc(C)cc1 (centres undefined) | inactive: -1.13% |  |
| COc1ccc(-c2nc(CC(=O)O)cs2)cc1OC |  | inconclusive: 14.6 µM [falling, partial curve, poor fit] |
| COc1ccc(-c2cc3nc(C4CCN(C(=O)OC(C)(C)C)CC4)c(C(=O)O)cn3n2)cc1 | inconclusive: -2.07% |  |
| O=c1oc(-c2cccc([N+](=O)[O-])c2)nc2ccccc12 |  | inconclusive: 4.47 µM [falling, partial curve] |
| Cc1ccc(-n2ncc3c(=O)[nH]c(SCC(=O)N4CCN(c5ccccc5)CC4)nc32)cc1 | inactive: 0.641% |  |
| Cc1ccc(S(=O)(=O)NC(C(=O)Oc2cc3oc(=O)cc(C)c3cc2Cl)C(C)C)cc1 (centres undefined) |  | inconclusive: 25.9 µM [rising, partial curve, poor fit] |
| Cc1cc(C)nc(N2CCC(C(=O)Nc3ccc4c(c3)OCO4)CC2)n1 | inactive: -2.31% |  |
| CCOC(=O)c1ccc(NC(=O)Nc2ccc(F)cc2)cc1 |  | inconclusive: 23.1 µM [falling, partial curve] |
| CCNC(=S)N/N=C/c1cccs1 |  | inconclusive: 6.51 µM [falling, partial curve, poor fit] |
| COc1ccccc1OCC(=O)Nc1ncc(C)s1 |  | inconclusive: 18.4 µM [falling, single point] |
| COc1ccc(/C=C2\SC(=S)N(CCC(=O)NCCCn3ccnc3)C2=O)cc1 |  | inconclusive: 11.2 µM [falling, partial curve] |
| CCCNS(=O)(=O)c1ccc(OCC(=O)NCc2ccco2)cc1 | inconclusive: -0.913% |  |
| Cc1ccc2nc(NC(=O)CCCc3nc4ccccc4s3)sc2c1 |  | inconclusive: 7.31 µM [rising, partial curve, poor fit] |
| CCOC(=O)C(NCc1ccco1)(NC(=O)c1ccccc1)C(F)(F)F (centres undefined) | inconclusive: -14.7% |  |
| CCn1c(COc2ccc(C(C)C)cc2)nnc1SCC(=O)Nc1nccs1 |  | inconclusive: 0.0731 µM [rising, full curve] |
| Cc1ccc(N2C(=O)c3ccccc3C2C(=O)c2ccc(C)c(C)c2O)cc1 (centres undefined) | inconclusive: 1.35% |  |
| CCOc1ncccc1C(=O)Nc1ccc(Cl)cc1 | inconclusive: 17.4% |  |

| SMILES | activity change, negative = inhibition | Potency |
| --- | --- | --- |
| CCOC(=O)COc1ccc(S(=O)(=O)Nc2cccc(SC)c2)cc1 | inconclusive: -0.373% |  |
| Cc1cc(C)n2cc(CSc3nnnn3C)nc2n1 | inactive: -12.6% |  |
| CC(C)(C)c1csc(NC(=O)CCc2ccccc2)n1 |  | inconclusive: 2.82 µM [rising, partial curve, poor fit] |
| COc1ccc(C#Cc2c(C=O)n(C)c3ccccc23)cc1 | inconclusive: 7.47% |  |
| COc1ccc(C2=CC(c3c(C)nn(-c4ccccc4)c3Cl)n3nnnc3N2)cc1OC (centres undefined) | inconclusive: -6.12% |  |
| O=C(OCC(=O)N(Cc1ccccc1)Cc1ccccc1)c1ccccc1NCCO | inactive: -4.64% |  |
| Cc1csc(=N)n1-c1ccc(Cl)cc1 | inconclusive: -0.0961% |  |
| COc1ccc(NC(=O)c2sc3nc(C)nc(N4CCOCC4)c3c2C)c(OC)c1 | inconclusive: 15.5% |  |
| COc1ccc(OC)c(C2C(C(=O)c3ccco3)=C(O)C(=O)N2CCN2CCOCC2)c1 (centres undefined) | inconclusive: 4.98% |  |
| COc1ccc(NC(=O)CSCc2ccccc2C)cc1 | inconclusive: 5.61% |  |
| Cc1ccc(NC(=O)c2ccc(NC(=O)C3CCCCC3C(=O)O)cc2)cc1 (centres undefined) | inconclusive: -1.5% |  |
| CCCc1cc(=O)oc2cc(OCC(=O)NCc3cccs3)ccc12 | inconclusive: 5.95% |  |
| CCOC(=O)c1cnc2c(ccc3ccccc32)c1N |  | inconclusive: 0.1 µM [rising, full curve, poor fit] |
| N=c1n(CC(=O)c2ccc(Br)s2)c2ccccc2n1Cc1ccccc1 |  | inconclusive: 3.55 µM [falling, single point] |
| CC(C)Nc1nc(Oc2ccc(Cl)cc2Cl)cc(C(F)(F)F)n1 | inactive: 2.03% |  |
| CCCN1Cc2cccc(C(=O)NCCCOC(C)C)c2C1=O |  | inconclusive: 9.2 µM [rising, partial curve, poor fit] |
| O=C(CCc1ccccc1)NCCc1cccs1 |  | inconclusive: 22.4 µM [falling, single point] |
| CC(C)N1C(=O)CCC1C(=O)O (centres undefined) | inconclusive: 2.52% |  |
| Cc1ccc(-n2c(C)nc3c(cnn3-c3ccccc3)c2=O)cc1 | inactive: -13.1% |  |
| Cc1cc(=O)oc2cc(NC(=O)CC3(CC(=O)O)CCCC3)ccc12 |  | inconclusive: 22.4 µM [falling, partial curve] |
| CCC(=O)OCC(=O)c1c(N)n(Cc2ccccc2)c(=O)n(C)c1=O | inconclusive: 16.5% |  |
| COc1ccc(CCN=Cc2ccc(O)cc2)cc1OC | inconclusive: 2.93% |  |
| CC(C)c1ccc(OCC(=O)N(c2ccccn2)C2CCCCC2)cc1 |  | inconclusive: 1.84 µM [rising, partial curve, poor fit] |
| COc1ccc(/C=N/Nc2nc(=O)[nH]nc2C)cc1OC |  | inconclusive: 22.4 µM [falling, partial curve, poor fit] |

Grouped by structure: the entries above containing a CF3 group.

| SMILES | activity change, negative = inhibition | Potency |
| --- | --- | --- |
| CCOC(=O)C(NCc1ccco1)(NC(=O)c1ccccc1)C(F)(F)F (centres undefined) | inconclusive: -14.7% |  |
| CC(C)Nc1nc(Oc2ccc(Cl)cc2Cl)cc(C(F)(F)F)n1 | inactive: 2.03% |  |
